The test has as its target SET domain containing 1B (SETD1B), histone-lysine N-methyltransferase (human (endogenous in HCT116)) (UniProt Q9UPS6). Briefly: proximity ligation; Duolink in situ PLA in HCT WT and HCT p21-/- cells; co-stained overnight at 4 C with SETD1B (rabbit, Abcam ab113984) and ZEB1 (mouse, R&D 639914) antibodies; EpCAM as negative control.

Amino acid sequences for entries named in this document (tags omitted).
UniProt Q9UPS6: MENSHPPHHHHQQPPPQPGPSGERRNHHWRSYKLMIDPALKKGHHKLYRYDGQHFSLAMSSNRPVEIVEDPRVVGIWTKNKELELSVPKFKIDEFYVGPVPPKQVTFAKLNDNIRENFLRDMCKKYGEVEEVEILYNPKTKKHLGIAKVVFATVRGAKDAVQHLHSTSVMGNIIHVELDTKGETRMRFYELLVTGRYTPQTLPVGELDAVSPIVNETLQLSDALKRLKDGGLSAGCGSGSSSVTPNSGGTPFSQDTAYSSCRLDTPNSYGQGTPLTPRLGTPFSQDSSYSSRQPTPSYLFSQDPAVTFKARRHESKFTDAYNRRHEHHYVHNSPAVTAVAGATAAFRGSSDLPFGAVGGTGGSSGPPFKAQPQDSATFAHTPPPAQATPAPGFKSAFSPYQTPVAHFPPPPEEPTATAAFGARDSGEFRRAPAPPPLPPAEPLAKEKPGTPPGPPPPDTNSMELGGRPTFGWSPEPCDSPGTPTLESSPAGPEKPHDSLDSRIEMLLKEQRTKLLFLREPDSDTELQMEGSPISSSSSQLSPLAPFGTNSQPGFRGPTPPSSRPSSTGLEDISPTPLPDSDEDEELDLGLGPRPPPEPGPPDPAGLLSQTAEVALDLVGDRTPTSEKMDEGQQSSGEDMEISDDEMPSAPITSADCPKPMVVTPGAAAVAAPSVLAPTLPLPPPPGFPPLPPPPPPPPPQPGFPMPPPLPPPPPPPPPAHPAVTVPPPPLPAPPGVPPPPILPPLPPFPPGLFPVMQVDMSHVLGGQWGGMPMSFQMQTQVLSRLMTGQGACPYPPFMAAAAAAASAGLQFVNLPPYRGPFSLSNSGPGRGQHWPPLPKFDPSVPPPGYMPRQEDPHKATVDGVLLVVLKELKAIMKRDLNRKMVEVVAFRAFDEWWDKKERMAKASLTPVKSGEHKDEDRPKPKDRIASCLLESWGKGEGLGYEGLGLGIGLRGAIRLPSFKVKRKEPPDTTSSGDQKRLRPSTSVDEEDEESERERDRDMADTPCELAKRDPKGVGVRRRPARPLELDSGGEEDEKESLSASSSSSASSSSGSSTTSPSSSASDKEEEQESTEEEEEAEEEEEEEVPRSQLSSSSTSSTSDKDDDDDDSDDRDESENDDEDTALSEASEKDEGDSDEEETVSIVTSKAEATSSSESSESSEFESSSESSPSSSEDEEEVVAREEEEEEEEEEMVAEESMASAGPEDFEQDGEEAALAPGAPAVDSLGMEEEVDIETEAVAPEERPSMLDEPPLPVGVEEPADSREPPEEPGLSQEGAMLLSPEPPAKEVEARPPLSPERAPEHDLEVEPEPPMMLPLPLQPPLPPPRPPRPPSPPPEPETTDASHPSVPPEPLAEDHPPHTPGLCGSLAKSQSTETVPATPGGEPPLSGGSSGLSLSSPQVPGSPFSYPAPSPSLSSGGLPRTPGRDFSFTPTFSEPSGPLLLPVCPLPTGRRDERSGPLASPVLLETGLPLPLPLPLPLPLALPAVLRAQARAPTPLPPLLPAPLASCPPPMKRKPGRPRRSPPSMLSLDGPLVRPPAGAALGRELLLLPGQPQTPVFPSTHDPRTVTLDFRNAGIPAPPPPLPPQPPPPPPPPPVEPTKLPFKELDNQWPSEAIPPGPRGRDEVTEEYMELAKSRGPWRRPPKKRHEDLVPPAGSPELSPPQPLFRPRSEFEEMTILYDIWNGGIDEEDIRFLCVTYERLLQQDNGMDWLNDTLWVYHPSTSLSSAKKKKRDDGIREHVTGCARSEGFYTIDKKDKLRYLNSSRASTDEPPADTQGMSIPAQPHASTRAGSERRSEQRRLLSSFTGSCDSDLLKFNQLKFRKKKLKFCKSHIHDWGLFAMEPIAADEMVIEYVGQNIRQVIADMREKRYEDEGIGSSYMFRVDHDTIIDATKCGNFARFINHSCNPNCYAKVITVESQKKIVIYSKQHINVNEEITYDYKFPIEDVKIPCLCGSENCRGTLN

Results are given in words; binding and its absence hold for the method and conditions named. Binding seen in cells or lysates may run through a third protein.

B1: EpCAM (protein, UniProt P16422 24-314)
chain: QEECVCENYKLAVNCFVNNNRQCQCTSVGAQNTVICSKLAAKCLVMKAEMNGSKLGRRAKPEGALQNNDGLYDPDCDESGLFKAKQCNGTSMCWCVNTAGVRRTDKDTEITCSERVRTYWIIIELKHKAREKPYDSKSLRTALQKEITTRYQLDPKFITSILYENNVITIDLVQNSSQKTQNDVDIADVAYYFEKDVKGESLFHSKKMDLTVNGEQLDLDPGQTLIYYVDEKAPEFSMQGLKAGVIAVIVVVVIAVVAGIVVLVISRKKRMAKYEKAEIKEMGEMHRELNA
As for B1, the binding entry is “no binding”.

Values taken from publication PMC7040187.
